From patent publication US20230348609A1 (WUXI BIOLOGICS SHANGHAI, published 2023)
Results are given in words; binding and its absence hold for the method and conditions named. Some binding calls cover weakened binding; strength is not graded here.

Amino acid sequences for entries named in this document (tags omitted). A change or cut given only in a name is not applied to a line headed by its entry. Chains listed by the source or under a name are the forms on record and can include a tag or linker.
W352-cynoPro1.ECD.His (G7PG38, form named): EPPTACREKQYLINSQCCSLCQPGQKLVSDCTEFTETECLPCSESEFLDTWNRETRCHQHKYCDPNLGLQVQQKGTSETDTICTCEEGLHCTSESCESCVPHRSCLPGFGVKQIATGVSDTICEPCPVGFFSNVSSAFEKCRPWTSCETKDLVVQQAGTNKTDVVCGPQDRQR

Molecular target: T1, W352-cynoPro1.ECD.His (cynomolgus monkey, UniProt G7PG38 21-193)
T1 construct: range 21-193; Also used for the 'recombinant cynomolgus monkey CD40 extracellular domain' coated in the ELISA of 3.5; also called Cynomolgus monkey CD40 extracellular domain, His tag; W352-cPro1.ECD.His; not shown: His tag
Assay: ELISA, plate coated with 1 ug/mL recombinant CD40 extracellular domain

B1: W3525-1.9.16-P5-uIgG2K (antibody, V domains shown)
VH: QVQLVQSGAEVKKPGSSVKVSCKASGDTVSSYGISWVRQAPGQGLEWMGGSIPFFGTPNYAQKFQGRVTFTADESTSTAYMELSSLRSEDTAVYYCARARRGYSYGHYHYYAMDVWGQGTTVTVAS
VL: DTVMTQSPLSLPVTPGEPASISCRSGQSLLHNNAYNYLDWYLQKPGQSPQLLIYLGSNRASGVPDRFSGSGSGTDFTLKISRVEAEDVGVYYCMQALQTPLSFGGGTKVEIKR
notes: Fully human IgG2 kappa with wild-type human IgG2 constant region; also called W3525 antibody; final lead antibody
binding: binds
